PubChem BioAssay AID1259282 | Sanger Institute | 2017

Aim: 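siRNA screen across the kinome seeking drug combinations lethal to colorectal cancer cells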 (primary screen)
System: DIFI human colorectal cancer cell line
Knock-down reagent: siRNA pool against human genes
Treatment: anchor drug at a mild dose (BYL719 1 µM, cetuximab 5 µg/ml, trametinib 10 nM) or DMSO vehicle; exposure time not given
Detection: 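Robust z-score and replicate-mean viability versus non-targeting pool without drug, plus a synergy score for each low-dose anchor drug (BYL719, cetuximab, trametinib)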
Scale: robust z-score, knock-down alone: higher = more viable cells than typical knock-down; viability, knock-down alone: higher = more viable cells
Units: viability, knock-down alone in fraction of control
Hit rule: 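a knock-down is called essential if its DMSO robust z-score is under -3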
Meaning of the calls: active = essential (knock-down alone, z below -3); inactive = not essential
The deposit covers 794 reagents; this is a random part of them. 11 of all reagents (1.4%) count as active. 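Calls flag knock-downs that lower viability without drug; drug synergy appears only in the synergy scores; exposure time not stated.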 No viability above 1 is reported: the scale is capped. Not all columns of the deposit are shown. Reagent sequences are not shown. Not given: the amount of reagent, the time to read-out.

STK36: robust z-score, knock-down alone = 0.715; viability, knock-down alone = 1; call = inactive
PIP4K2C: robust z-score, knock-down alone = 0.715; viability, knock-down alone = 1; call = inactive
RYK: robust z-score, knock-down alone = 0.715; viability, knock-down alone = 1; call = inactive
RIPK4: robust z-score, knock-down alone = 0.715; viability, knock-down alone = 1; call = inactive
NTRK2: robust z-score, knock-down alone = 0.715; viability, knock-down alone = 1; call = inactive
PNKP: robust z-score, knock-down alone = -0.742; viability, knock-down alone = 0.788; call = inactive
MYH10: robust z-score, knock-down alone = -0.399; viability, knock-down alone = 0.838; call = inactive
BCOR: robust z-score, knock-down alone = 0.715; viability, knock-down alone = 1; call = inactive
MYLK2: robust z-score, knock-down alone = -3.27; viability, knock-down alone = 0.421; call = active
AKT2: robust z-score, knock-down alone = -1.22; viability, knock-down alone = 0.719; call = inactive
GTF2H1: robust z-score, knock-down alone = -1.77; viability, knock-down alone = 0.639; call = inactive
GUCY2F: robust z-score, knock-down alone = 0.715; viability, knock-down alone = 1; call = inactive

Copied from the list:
Under “robust z-score, knock-down alone”, RYK reads 0.715
Result for BCOR under “viability, knock-down alone”: 1

The listing continues:
KIT: robust z-score, knock-down alone = 0.0348; viability, knock-down alone = 0.901; call = inactive
MINK1: robust z-score, knock-down alone = 0.715; viability, knock-down alone = 1; call = inactive
AURKC: robust z-score, knock-down alone = 0.111; viability, knock-down alone = 0.912; call = inactive
TNIK: robust z-score, knock-down alone = 0.715; viability, knock-down alone = 1; call = inactive
ERBB4: robust z-score, knock-down alone = 0.715; viability, knock-down alone = 1; call = inactive
NR2F2: robust z-score, knock-down alone = 0.038; viability, knock-down alone = 0.902; call = inactive
MPP1: robust z-score, knock-down alone = 0.715; viability, knock-down alone = 1; call = inactive
